Results are given in words; binding and its absence hold for the method and conditions named. For part of these data: In cells and extracts the contact can be indirect. Some entries that bind do so weakly or less than the wild type.
B1: SNAP23 (protein, UniProt O00161 1-211)
chain: MDNLSSEEIQQRAHQITDESLESTRRILGLAIESQDAGIKTITMLDEQKEQLNRIEEGLDQINKDMRETEKTLTELNKCCGLCVCPCNRTKNFESGKAYKTTWGDGGENSPCNVVSKQPGPVTNGQLQQPTTGAASGGYIKRITNDAREDEMEENLTQVGSILGNLKDMALNIGNEIDAQNPQIKRITDKADTNRDRIDIANARAKKLIDS

The chains behind the UniProt entries cited, without tags or fusion partners. Where a name states a change or a piece, a line headed by the entry shows the natural chain unless it says otherwise. Residues count along the entry.
UniProt Q12846, whole entry, looked up, stated change not applied: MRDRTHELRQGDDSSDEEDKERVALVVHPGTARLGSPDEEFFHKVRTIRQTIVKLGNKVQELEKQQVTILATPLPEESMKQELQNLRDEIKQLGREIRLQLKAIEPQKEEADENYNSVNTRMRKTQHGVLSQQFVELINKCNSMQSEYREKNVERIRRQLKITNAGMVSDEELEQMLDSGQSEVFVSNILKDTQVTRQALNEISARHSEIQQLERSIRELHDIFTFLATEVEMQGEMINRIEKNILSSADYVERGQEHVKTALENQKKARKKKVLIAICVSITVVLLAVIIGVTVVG
UniProt P70452, whole entry: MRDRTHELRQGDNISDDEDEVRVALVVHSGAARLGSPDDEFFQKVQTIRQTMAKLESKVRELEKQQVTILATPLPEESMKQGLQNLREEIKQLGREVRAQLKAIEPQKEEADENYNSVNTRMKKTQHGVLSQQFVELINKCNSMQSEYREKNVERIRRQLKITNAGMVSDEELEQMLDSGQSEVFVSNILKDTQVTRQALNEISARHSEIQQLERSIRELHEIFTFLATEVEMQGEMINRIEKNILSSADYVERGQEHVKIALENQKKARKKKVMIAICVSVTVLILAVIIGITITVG
UniProt Q15836, whole entry, looked up, stated change not applied: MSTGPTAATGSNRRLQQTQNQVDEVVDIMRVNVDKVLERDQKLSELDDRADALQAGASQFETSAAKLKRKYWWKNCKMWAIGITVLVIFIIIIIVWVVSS
UniProt Q15836, 1-77: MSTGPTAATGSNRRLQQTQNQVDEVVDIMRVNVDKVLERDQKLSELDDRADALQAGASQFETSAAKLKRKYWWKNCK
UniProt P63024, whole entry, looked up, stated change not applied: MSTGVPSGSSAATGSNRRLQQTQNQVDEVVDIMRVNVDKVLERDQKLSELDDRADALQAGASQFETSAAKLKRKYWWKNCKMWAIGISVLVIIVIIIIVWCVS

Experiments:
[1] = target: preformed acceptor complex of SNAP23, cytosolic fragment of STX4 and VAMP2(49-96) (UniProt Q12846); assay: SDS-resistant SNARE complex formation
[2] = target: mouse STX4 C-terminally fused with mCitrine (mouse) (UniProt P70452); assay: FRET or BRET
[3] = target: cytosolic fragment of human STX4 (residues 1-271 with 272C) (human) (UniProt Q12846); assay: SEC

Row | Molecule | binding [1] | binding [2] | other results
1 | cytosolic fragment of human VAMP3 S44E (residues 1-77) (from UniProt Q15836 1-77) (domain or fragment) | binds |  | 
2 | mouse VAMP3 S48A (phosphodead) C-terminally fused with mCherry (from UniProt P63024 1-103) |  | binds | 
3 | cytosolic fragment of human VAMP3 WT (residues 1-77) (from UniProt Q15836 1-77) (domain or fragment) | binds |  | 
4 | mouse VAMP3 S48E (phosphomimetic) C-terminally fused with mCherry (from UniProt P63024 1-103) |  | binds | 
5 | cytosolic fragment of human VAMP3 S44A (residues 1-77) (from UniProt Q15836 1-77) (domain or fragment) | binds |  | 
6 | B1 |  |  | binding [3]: binds

Source: publication doi:10.1101/2023.07.13.548819
